The list shows a part of the results. Small differences around the control level are noise.
Compound: CN[C@@H]1C[C@H]2O[C@@](C)([C@@H]1OC)n1c3ccccc3c3c4c(c5c6ccccc6n2c5c31)C(=O)NC4 [staurosporine]
Experiment: log2 fold change of tryptic peptide abundance, ligand vs vehicle (limited proteolysis) (log2 ratio); higher = more trypsin-susceptible (destabilized)
Details: ligand concentration: 20 uM; sample: mouse liver crude lysate; replicate design: treated separately

Chains of the proteins cited; added tags and fusions are not shown. Lines headed by an entry give the natural chain unless they say otherwise; changes in a name come on top.
UniProt Q99LC8: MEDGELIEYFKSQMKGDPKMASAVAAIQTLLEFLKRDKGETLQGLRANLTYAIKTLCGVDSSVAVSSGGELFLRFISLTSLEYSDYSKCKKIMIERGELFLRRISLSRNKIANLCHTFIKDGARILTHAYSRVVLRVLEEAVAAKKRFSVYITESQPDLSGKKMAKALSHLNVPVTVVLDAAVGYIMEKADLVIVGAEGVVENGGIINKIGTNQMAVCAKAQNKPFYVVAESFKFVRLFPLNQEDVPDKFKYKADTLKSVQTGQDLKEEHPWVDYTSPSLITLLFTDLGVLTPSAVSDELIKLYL
UniProt Q99L60: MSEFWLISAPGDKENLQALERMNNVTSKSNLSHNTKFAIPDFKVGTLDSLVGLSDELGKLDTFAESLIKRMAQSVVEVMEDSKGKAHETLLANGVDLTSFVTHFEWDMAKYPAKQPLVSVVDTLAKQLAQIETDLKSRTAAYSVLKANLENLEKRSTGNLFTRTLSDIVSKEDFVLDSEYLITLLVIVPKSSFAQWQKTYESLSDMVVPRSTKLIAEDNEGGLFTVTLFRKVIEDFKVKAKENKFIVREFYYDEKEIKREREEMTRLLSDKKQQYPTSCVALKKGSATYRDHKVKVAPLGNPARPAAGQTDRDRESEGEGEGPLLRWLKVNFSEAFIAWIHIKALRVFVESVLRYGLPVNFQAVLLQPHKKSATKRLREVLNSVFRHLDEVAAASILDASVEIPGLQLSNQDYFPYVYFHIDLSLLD
UniProt Q923U0: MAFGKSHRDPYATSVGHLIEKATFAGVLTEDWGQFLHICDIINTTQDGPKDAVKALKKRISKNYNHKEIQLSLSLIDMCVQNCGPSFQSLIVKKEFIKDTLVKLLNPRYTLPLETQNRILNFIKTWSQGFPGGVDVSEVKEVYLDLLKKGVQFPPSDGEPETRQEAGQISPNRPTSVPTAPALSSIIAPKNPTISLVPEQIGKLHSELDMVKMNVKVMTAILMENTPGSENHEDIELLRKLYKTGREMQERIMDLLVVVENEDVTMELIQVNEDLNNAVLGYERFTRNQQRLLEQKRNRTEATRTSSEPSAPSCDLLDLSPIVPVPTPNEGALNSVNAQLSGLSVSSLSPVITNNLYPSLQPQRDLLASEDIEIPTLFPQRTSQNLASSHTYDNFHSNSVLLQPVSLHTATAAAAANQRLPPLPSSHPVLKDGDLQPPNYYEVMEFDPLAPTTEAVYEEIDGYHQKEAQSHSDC
UniProt Q922Y1: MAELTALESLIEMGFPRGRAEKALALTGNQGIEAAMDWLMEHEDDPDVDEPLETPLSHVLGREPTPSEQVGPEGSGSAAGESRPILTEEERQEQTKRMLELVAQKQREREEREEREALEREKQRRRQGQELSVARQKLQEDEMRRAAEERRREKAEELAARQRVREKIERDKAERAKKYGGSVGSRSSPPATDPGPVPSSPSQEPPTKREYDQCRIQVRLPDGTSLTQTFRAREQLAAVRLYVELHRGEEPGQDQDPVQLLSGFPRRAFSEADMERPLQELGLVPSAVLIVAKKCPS
UniProt Q922B6: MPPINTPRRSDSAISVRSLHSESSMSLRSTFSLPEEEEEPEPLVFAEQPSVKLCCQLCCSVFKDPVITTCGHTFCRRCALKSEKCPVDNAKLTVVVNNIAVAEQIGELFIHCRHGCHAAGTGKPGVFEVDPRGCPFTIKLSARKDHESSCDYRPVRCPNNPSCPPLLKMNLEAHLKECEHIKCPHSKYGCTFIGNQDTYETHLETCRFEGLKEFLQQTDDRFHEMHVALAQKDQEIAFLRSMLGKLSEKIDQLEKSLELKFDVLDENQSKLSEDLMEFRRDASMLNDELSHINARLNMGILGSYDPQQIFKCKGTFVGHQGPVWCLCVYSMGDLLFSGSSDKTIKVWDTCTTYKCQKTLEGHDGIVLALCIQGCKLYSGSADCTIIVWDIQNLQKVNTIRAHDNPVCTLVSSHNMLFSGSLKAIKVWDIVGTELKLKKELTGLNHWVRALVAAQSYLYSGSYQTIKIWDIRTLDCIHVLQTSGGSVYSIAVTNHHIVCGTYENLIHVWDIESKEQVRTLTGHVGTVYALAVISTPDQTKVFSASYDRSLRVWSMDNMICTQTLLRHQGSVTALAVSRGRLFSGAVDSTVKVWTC
UniProt Q99JF5: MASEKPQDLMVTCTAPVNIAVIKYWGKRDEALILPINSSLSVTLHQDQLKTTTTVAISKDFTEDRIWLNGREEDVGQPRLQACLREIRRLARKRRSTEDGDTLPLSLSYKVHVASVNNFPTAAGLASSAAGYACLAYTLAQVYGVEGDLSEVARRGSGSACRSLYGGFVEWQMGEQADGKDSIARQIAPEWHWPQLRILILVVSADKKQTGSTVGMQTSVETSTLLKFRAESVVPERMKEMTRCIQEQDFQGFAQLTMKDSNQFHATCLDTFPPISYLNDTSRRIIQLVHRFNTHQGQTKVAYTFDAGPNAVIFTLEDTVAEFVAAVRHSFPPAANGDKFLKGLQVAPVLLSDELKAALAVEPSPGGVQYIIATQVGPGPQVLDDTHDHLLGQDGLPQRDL
UniProt Q99KJ8, whole entry: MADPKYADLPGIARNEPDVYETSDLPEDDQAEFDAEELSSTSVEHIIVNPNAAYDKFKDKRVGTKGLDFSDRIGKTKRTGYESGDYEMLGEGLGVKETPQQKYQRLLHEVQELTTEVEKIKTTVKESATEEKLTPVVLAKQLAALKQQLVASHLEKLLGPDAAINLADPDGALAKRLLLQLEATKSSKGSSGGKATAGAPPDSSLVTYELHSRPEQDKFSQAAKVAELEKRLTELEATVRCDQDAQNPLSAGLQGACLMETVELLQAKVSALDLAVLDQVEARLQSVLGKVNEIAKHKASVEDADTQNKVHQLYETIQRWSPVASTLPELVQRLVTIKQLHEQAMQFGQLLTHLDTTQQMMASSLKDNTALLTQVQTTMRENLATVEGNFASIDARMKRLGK
UniProt Q923B6: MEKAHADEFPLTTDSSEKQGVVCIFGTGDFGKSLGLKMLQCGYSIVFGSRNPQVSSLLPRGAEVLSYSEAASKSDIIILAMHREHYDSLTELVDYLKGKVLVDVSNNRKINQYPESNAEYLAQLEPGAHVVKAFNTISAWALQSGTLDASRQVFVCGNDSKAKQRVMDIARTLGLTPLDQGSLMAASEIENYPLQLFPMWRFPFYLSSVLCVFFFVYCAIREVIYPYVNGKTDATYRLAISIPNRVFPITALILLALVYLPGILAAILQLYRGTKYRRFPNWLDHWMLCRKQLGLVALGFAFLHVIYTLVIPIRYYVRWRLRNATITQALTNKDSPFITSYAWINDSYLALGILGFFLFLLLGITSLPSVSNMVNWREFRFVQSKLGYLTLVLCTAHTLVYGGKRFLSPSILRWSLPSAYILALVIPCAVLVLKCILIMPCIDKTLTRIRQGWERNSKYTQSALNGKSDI
UniProt Q920B0: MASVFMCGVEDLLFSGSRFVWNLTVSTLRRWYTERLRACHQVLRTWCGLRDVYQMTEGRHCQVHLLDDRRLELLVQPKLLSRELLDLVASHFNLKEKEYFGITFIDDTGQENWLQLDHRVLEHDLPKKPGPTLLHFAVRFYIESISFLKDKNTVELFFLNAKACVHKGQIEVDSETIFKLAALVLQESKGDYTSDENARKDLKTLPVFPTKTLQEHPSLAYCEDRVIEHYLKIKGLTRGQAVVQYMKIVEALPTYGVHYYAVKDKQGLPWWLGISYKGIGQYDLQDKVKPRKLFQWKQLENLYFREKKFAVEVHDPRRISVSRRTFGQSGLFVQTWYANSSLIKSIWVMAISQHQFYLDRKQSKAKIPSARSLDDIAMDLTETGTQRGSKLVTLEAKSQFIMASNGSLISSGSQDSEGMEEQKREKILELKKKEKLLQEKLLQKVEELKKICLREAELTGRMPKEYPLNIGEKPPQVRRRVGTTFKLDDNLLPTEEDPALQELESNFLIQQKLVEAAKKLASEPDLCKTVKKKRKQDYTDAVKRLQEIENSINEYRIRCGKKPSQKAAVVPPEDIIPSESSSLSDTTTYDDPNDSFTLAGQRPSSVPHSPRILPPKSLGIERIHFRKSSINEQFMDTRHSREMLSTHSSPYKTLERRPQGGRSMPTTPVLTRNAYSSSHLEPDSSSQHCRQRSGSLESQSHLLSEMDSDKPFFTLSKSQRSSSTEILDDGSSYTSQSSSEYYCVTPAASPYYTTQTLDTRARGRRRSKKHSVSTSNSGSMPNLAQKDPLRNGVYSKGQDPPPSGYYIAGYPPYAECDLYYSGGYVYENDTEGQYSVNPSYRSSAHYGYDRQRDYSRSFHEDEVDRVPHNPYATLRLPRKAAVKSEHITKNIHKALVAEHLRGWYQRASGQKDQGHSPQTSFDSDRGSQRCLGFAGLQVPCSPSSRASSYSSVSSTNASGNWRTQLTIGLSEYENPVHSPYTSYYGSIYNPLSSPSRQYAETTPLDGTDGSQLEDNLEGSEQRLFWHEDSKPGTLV
UniProt Q924S8: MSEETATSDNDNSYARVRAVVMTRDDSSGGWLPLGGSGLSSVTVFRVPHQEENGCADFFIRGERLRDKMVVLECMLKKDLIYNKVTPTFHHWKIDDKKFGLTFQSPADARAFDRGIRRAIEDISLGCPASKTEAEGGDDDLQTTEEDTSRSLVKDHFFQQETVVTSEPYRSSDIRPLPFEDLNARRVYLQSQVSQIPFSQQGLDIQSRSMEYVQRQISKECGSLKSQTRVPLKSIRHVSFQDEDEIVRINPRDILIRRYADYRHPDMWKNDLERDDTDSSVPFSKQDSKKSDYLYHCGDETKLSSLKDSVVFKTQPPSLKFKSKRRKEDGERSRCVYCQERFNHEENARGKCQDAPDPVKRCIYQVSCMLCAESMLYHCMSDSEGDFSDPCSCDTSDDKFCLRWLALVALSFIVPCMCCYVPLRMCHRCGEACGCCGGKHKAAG
UniProt Q99K30: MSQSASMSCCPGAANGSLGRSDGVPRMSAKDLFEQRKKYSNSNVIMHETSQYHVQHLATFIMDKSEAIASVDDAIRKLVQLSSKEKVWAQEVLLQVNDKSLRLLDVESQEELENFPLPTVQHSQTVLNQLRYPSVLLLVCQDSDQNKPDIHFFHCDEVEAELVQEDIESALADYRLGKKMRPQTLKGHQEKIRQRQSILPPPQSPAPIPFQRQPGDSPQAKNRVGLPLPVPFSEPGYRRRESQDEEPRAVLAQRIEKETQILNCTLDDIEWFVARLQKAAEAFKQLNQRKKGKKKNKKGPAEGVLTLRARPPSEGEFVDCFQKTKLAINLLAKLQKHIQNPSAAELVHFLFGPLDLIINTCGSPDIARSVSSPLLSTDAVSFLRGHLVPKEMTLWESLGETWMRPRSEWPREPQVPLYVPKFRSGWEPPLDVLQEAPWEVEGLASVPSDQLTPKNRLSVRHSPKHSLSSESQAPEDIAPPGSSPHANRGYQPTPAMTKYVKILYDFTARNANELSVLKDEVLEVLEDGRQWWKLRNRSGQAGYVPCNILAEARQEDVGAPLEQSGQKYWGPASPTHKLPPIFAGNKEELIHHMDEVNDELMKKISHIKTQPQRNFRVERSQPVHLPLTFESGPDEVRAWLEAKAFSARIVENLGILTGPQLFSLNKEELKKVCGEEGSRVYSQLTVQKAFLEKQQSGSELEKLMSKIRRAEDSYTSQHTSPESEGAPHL
UniProt Q99LG0, whole entry: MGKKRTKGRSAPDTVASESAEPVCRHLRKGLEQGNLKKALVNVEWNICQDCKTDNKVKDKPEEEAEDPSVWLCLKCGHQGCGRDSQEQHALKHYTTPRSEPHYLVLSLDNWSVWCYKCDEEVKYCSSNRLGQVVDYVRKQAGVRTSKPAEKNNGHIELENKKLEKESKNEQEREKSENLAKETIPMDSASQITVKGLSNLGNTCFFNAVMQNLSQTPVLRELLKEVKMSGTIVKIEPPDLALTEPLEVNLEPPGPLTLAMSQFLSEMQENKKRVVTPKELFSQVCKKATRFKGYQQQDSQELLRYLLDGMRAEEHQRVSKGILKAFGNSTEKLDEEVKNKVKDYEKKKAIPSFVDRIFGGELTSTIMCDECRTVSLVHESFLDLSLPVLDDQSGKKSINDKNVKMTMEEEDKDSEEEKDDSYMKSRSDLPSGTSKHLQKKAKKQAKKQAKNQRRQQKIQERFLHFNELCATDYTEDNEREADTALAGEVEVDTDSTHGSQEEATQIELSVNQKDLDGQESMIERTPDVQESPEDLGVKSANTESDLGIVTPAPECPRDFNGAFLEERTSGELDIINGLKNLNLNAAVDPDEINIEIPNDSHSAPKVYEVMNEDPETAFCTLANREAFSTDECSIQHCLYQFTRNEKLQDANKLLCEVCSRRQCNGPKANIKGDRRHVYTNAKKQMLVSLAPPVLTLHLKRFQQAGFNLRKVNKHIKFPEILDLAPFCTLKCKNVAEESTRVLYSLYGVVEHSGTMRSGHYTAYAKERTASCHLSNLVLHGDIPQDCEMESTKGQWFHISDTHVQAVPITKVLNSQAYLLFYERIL

Target | log2 fold change
UniProt Q99JB8 (peptide sequence: AAEDGFRK, peptide start residue: 131) | 0.336
UniProt Q99LC8 (peptide sequence: AQNKPFYVVAESFK, peptide start residue: 221) | -0.247
UniProt Q922Z0 (peptide sequence: SPDAELSR, peptide start residue: 245) | 0.247
UniProt Q91ZX7 (peptide sequence: ILWIDAR, peptide start residue: 1449) | 0.287
UniProt Q99L60 (peptide sequence: KGSATYRDHK, peptide start residue: 284) | -0.127
UniProt Q923U0 (peptide sequence: EVYLDLLKK, peptide start residue: 141) | -0.43
UniProt Q99KK2 (peptide sequence: HLIEMGYLQGGK, peptide start residue: 221) | 0.231
UniProt Q922Y1 (peptide sequence: MLELVAQK, peptide start residue: 98) | -0.093
UniProt Q922B6 (peptide sequence: LSEDLMEFRR, peptide start residue: 271) | 0.642
UniProt Q99JF5 (peptide sequence: IIQLVHR, peptide start residue: 285) | -0.312
UniProt Q99KJ8 (peptide sequence: ASVEDADTQNK, peptide start residue: 299) | -0.157
UniProt Q923B6 (peptide sequence: SDIIILAMHR, peptide start residue: 74) | -0.747
UniProt Q91ZW2 (peptide sequence: DGTAGSHFMASPQCVGYSR, peptide start residue: 259) | 0.314
UniProt Q920B0 (peptide sequence: SSINEQFMDTR, peptide start residue: 628) | -0.38
UniProt Q922R8 (peptide sequence: KAATALKDVVK, peptide start residue: 67) | -1.21
UniProt Q924S8 (peptide sequence: KSDYLYHCGDETK, peptide start residue: 290) | 0.852
UniProt Q99K30 (peptide sequence: NKKGPAEGVLTLR, peptide start residue: 296) | -0.257
UniProt Q99LG0 (peptide sequence: SDLPSGTSK, peptide start residue: 427) | -0.171

Given as a markdown table: part of the list above.

| Target | log2 fold change |
| --- | --- |
| UniProt Q99K30 (peptide sequence: NKKGPAEGVLTLR, peptide start residue: 296) | -0.257 |
| UniProt Q99LG0 (peptide sequence: SDLPSGTSK, peptide start residue: 427) | -0.171 |

Reference: the supplement of paper PMC12819154, “High-throughput peptide-centric local stability assay extends protein–ligand identification to membrane proteins, tissues and bacteria” (Nature Structural & Molecular Biology, 2025)
